Results reported in the supplement of paper PMC6078165.

System: BT20
Assay: relative JC-1 red fluorescence (viability) vs pre-drug, coculture with fibroblast (fraction); higher = more viable cancer cells
Conditions: 1 µM
Description: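 JC-1 labelled TNBC cells cocultured 1:1 (1,500 cells each) with CellTrace Violet stained primary or stromal fibroblasts in 384-well plates in FluoroBrite medium, treated with one of 42 anticancer drugs at 0.1, 1, 10 or 100 uM. JC-1 red fluorescence (mitochondrial integrity in cancer cells only) was read by plate reader every 8 h for 72 h. Values are normalised to each well's pre-drug value. The stock of one drug was tenfold lower, so its dose labels may be too high.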

Cc1c2oc3c(C)ccc(C(=O)N[C@@H]4C(=O)N[C@H](C(C)C)C(=O)N5CCC[C@H]5C(=O)N(C)CC(=O)N(C)[C@@H](C(C)C)C(=O)O[C@@H]4C)c3nc-2c(C(=O)N[C@@H]2C(=O)N[C@H](C(C)C)C(=O)N3CCC[C@H]3C(=O)N(C)CC(=O)N(C)[C@@H](C(C)C)C(=O)O[C@@H]2C)c(N)c1=O [Dactinomycin] (I: T[dV]P[Sar][NMeV] / II: T[dV]P[Sar][NMeV]; ester I:1-I:C, II:1-II:C; linker I:N-II:N via Actinocin(9to1))
relative JC-1 red fluorescence
Conditions | 8 h | 16 h | 24 h | 32 h | 40 h | 48 h | 56 h | 64 h | 72 h
coculture fibroblast: C12385 | 0.843 ± 0.03 | 0.806 ± 0.022 | 0.806 ± 0.1 | 0.741 ± 0.13 | 0.673 ± 0.14 | 0.66 ± 0.17 | 0.641 ± 0.17 | 0.644 ± 0.17 | 0.648 ± 0.17
coculture fibroblast: H6013 | 0.927 ± 0.013 | 0.892 ± 0.056 | 0.889 ± 0.15 | 0.8 ± 0.18 | 0.76 ± 0.21 | 0.722 ± 0.23 | 0.731 ± 0.26 | 0.716 ± 0.26 | 0.706 ± 0.27
coculture fibroblast: H6019 | 0.834 ± 0.044 | 0.75 ± 0.093 | 0.71 ± 0.17 | 0.646 ± 0.19 | 0.6 ± 0.22 | 0.604 ± 0.23 | 0.588 ± 0.24 | 0.584 ± 0.24 | 0.586 ± 0.26
coculture fibroblast: H6076 | 0.881 ± 0.05 | 0.892 ± 0.024 | 0.774 ± 0.09 | 0.728 ± 0.14 | 0.707 ± 0.15 | 0.687 ± 0.18 | 0.68 ± 0.21 | 0.686 ± 0.22 | 0.672 ± 0.23
coculture fibroblast: H6231 | 0.781 ± 0.06 | 0.8717 ± 0.0034 | 0.764 ± 0.021 | 0.69 ± 0.022 | 0.609 ± 0.019 | 0.549 ± 0.0095 | 0.5225 ± 0.0037 | 0.483 ± 0.016 | 0.474 ± 0.024
coculture fibroblast: HADF | 0.9561 ± 0.0074 | 0.896 ± 0.052 | 0.863 ± 0.085 | 0.767 ± 0.067 | 0.735 ± 0.057 | 0.706 ± 0.06 | 0.713 ± 0.052 | 0.708 ± 0.05 | 0.698 ± 0.038
coculture fibroblast: HCFa | 0.919 ± 0.019 | 0.838 ± 0.013 | 0.763 ± 0.064 | 0.685 ± 0.11 | 0.651 ± 0.14 | 0.625 ± 0.13 | 0.625 ± 0.15 | 0.624 ± 0.17 | 0.606 ± 0.17
coculture fibroblast: HCPF | 0.789 ± 0.073 | 0.933 ± 0.02 | 0.846 ± 0.016 | 0.783 ± 0.041 | 0.743 ± 0.053 | 0.693 ± 0.042 | 0.63 ± 0.067 | 0.607 ± 0.061 | 0.553 ± 0.051
coculture fibroblast: HHSteC | 0.9264 ± 0.0013 | 0.9 ± 0.0094 | 0.8867 ± 0.0026 | 0.759 ± 0.029 | 0.719 ± 0.054 | 0.674 ± 0.072 | 0.673 ± 0.08 | 0.653 ± 0.089 | 0.629 ± 0.1
coculture fibroblast: HMF | 0.899 ± 0.055 | 0.8686 ± 0.0054 | 0.734 ± 0.075 | 0.656 ± 0.069 | 0.608 ± 0.076 | 0.559 ± 0.077 | 0.531 ± 0.081 | 0.502 ± 0.074 | 0.477 ± 0.065
coculture fibroblast: HPFa | 0.901 ± 0.022 | 0.843 ± 0.13 | 0.833 ± 0.22 | 0.738 ± 0.23 | 0.727 ± 0.28 | 0.701 ± 0.29 | 0.716 ± 0.32 | 0.713 ± 0.33 | 0.699 ± 0.33
coculture fibroblast: HUF | 0.881 ± 0.0099 | 0.781 ± 0.042 | 0.729 ± 0.069 | 0.631 ± 0.08 | 0.574 ± 0.11 | 0.536 ± 0.12 | 0.531 ± 0.12 | 0.515 ± 0.12 | 0.501 ± 0.12
coculture fibroblast: Hs5 | 0.868 ± 0.15 | 0.875 ± 0.033 | 0.764 ± 0.071 | 0.708 ± 0.082 | 0.679 ± 0.068 | 0.65 ± 0.075 | 0.638 ± 0.063 | 0.621 ± 0.061 | 0.609 ± 0.059
coculture fibroblast: Hs27A | 0.874 ± 0.019 | 0.828 ± 0.071 | 0.773 ± 0.044 | 0.789 ± 0.1 | 0.829 ± 0.24 | 0.822 ± 0.25 | 0.734 ± 0.13 | 0.68 ± 0.053 | 0.795 ± 0.25
coculture fibroblast: Hs343T | 0.902 ± 0.085 | 0.878 ± 0.062 | 0.773 ± 0.1 | 0.707 ± 0.12 | 0.666 ± 0.11 | 0.615 ± 0.086 | 0.571 ± 0.081 | 0.555 ± 0.067 | 0.533 ± 0.062
coculture fibroblast: WS1 | 0.838 ± 0.021 | 0.788 ± 0.0096 | 0.739 ± 0.037 | 0.661 ± 0.026 | 0.6182 ± 0.0052 | 0.603 ± 0.01 | 0.6016 ± 0.0028 | 0.5984 ± 0.0032 | 0.595 ± 0.0098

± gives the standard deviation of the averaged measurements. The reference is the same well before dosing, and untreated signal decays as well.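 Labels refer to human fibroblasts, largely primary: uterine (C12385, HUF), lung (H6013), bone (Hs27A), adrenal (HADF), skin (WS1), plus mammary HMF and breast cancer-associated Hs343T. Cancer lines are basal-like or mesenchymal-like triple-negative breast cancer. The paper counts as hits responses shifting over 3x the replicate standard deviation. The tissue of the other fibroblasts is not given here.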 Numbered stars: 1 amine (or outer) side, 2 acyl side, 3 side chain; on linkers, the order of the positions; unused ones are H or OH. Bridge positions count the residues as written; N and C are the ends. Square brackets hold non-standard residues; d marks the D form. Peptide text beside a SMILES is read from it. I, II: the chains in the order shown. Actinocin(9to1) = Cc1c2oc3c(C)ccc(C(=O)[*:1])c3nc-2c(C(=O)[*:2])c(N)c1=O; NMeV = CN[C@H](C(=O)O)C(C)C; Sar = CNCC(=O)O
